PubChem BioAssay AID1259425 – University of Nebraska Medical Center, 2018

Assay: 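Seek colon cancer weak points whose silencing resembles KSR1 loss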 (primary screen)
System: HCT116 human colon cancer cells
Reagent: siRNA pool against human genes, 50 nM siRNA
Measurement: 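After 50 nM siRNA pool, branched-DNA assay measures six marker transcripts per well, minus blank, normalised to the geometric mean of two housekeeping transcripts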
Reading the numbers: BNIP3L mRNA: higher = more BNIP3L transcript after knockdown
This is one part, drawn at random, of about 14,000 reagents tested. A reagent listed more than once was tested more than once; the source does not tell the runs apart. Not all columns of the deposit are shown. The record does not give: the time to read-out.

gene symbol | BNIP3L mRNA, set 1
FAM167A-AS1 | 0.374
TMEM115 | 0.184
GPR6 | 0.501
ZNF592 | 0.141
HOXD8 | 0.0709
RCBTB2 | 0.109
AGMAT | 0.13
SLC19A3 | 0.0763
ARFGEF1 | 0.166
PCDHA7 | 0.06
FOXL1 | 0.0764
CCNB1 | 0.148
FBXO40 | 0.125
SCLY | 0.137
TUBE1 | 0.0579
P2RY12 | 0.137
PDCD2 | 0.103
AK3 | 0.0607
RRS1 | 0.212
ADRB2 | 0.175
ADRB2 | 0.161
MYBPC1 | 0.159
RPL37A | 0.204
VRK3 | 0.0716
RORA | 0.0708
TRIM29 | 0.15
WDR3 | 1.14
TUBA3C | 0.219
WIZ | 0.0823
CAP2 | 0.126
SLF1 | 0.11
NETO1 | 0.0758
POLR2L | 0.0826
KCNJ3 | 0.0887
SRP68 | 0.141
ANKRD10 | 0.146
TAF6 | 0.122
ZNF341 | 0.135
ZNF189 | 0.132
ZNF70 | 0.269
C19orf73 | 0.208
STMN4 | 0.152
PRDM7 | 0.0789
VN1R3 | 0.096
PTPN12 | 0.1
ENAM | 0.275
USF1 | 0.0901
ILRUN | 0.173
FSTL4 | 0.208
SEPTIN9 | 0.139
GAL3ST2 | 0.183
METTL26 | 0.142
RPP40 | 0.119
SLC38A7 | 0.0741
KLHL4 | 0.0508
CARD9 | 0.117
SUGT1P4-STRA6LP-CCDC180 | 0.0739
MRPL27 | 0.0965
EIF2AK1 | 0.134
PROP1 | 0.213
ZNF141 | 0.145
IFNA8 | 0.0632
NR0B2 | 0.0521

Entries above whose target name begins with G or g (2):
gene symbol | BNIP3L mRNA, set 1
GPR6 | 0.501
GAL3ST2 | 0.183
